Assay results taken from PubChem BioAssay (Tox21).
Several values for one entry are separate records, joined by “and”; a condition that tells them apart may be missing. Equal values may be shown once. Inconclusive results, whose numbers are uncertain, are shown with a selection of clear calls. Where the call is inconclusive, the potency comes from a doubtful curve fit. Where a structure was tested more than once in an assay, its records may differ in their call. Activity calls are given as the source filed them. The call rests on the fitted dose curve.

Amino acid sequences for entries named in this document (tags omitted). A change or cut given only in a name is not applied to a line headed by its entry.
UniProt P19793: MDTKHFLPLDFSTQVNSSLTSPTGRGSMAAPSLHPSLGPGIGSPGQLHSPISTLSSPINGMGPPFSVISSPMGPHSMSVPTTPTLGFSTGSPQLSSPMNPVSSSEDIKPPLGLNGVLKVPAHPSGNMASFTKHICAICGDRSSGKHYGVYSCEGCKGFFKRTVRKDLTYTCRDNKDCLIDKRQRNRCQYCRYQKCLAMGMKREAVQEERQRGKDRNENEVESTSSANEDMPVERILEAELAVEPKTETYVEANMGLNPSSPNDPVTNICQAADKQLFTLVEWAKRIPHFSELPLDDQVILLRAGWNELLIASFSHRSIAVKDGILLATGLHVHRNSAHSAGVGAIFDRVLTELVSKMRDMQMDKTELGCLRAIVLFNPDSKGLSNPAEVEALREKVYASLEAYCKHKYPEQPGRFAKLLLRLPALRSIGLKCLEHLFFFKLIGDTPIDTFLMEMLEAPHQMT

target: Retinoic acid receptor RXR-alpha (Homo sapiens) (UniProt P19793); test: qHTS assay to identify small molecule agonists of the RXR signaling pathway (AID 1159527); conditions: HEK293T RXRa-UAS-bla, beta-lactamase ratio, 16 h; activation: at 76.8 µM (top of the series) unless noted; further: nearly all actives have a fitted effect of over 35% in size
Excerpt: U.S. Tox21 Program National Center for Advancing Translational Sciences [NCATS] NIH Chemical Genomics Center [NCGC] U.S. Environmental Protection Agency [EPA] National Institutes of Environmental Health Sciences [NIEHS] National Toxicology Program [NTP] U.S. Food and Drug Administration [FDA] Tox21 Assay Overview: The Retinoid X receptor (RXR), a nuclear hormone receptor expressed in liver, spleen, placenta, epidermis, central nervous system. These receptors are able to form homo and heterodimers with other nuclear receptors and due to this heterodimerizing ability, RXR functions as master regulators producing diverse physiological effects. Three subtypes of RXR exist; alpha, beta and gamma. Retinoid X receptor alpha (RXR-alpha) has potential roles in metabolic signaling pathways, skin alopecia, dermal cysts, cardiac development, insulin sensitization etc. Therefore screening environmental chemicals on RXR-alpha signaling can be used for the studies focused on such therapeutic applications. For quantification of RXR-alpha ligands signaling, GeneBLAzer RXR alpha-UAS-bla HEK 293T (Life Technologies, Carlsbad, CA) cells containing a beta-lactamase reporter-gene under control of Retinoid X receptor-alpha response element were used to screen Tox21 10K library.
Tox21 Assay Protocol Summary: RXR-alpha HEK 293T cells were dispensed at 2,000 cells/6 uL of assay medium containing 2% charcoal-stripped FBS using a Multidrop Combi (ThermoFisher Scientific, Waltham, MA) dispenser. The assay was performed in black wall/clear-bottom 1536-well plates (Greiner Bio-One North America Inc. Monroe, NC). 9-cis retinoic acid was used as a positive control in the agonist mode screen. After the assay plates were incubated at 37 C and 5% CO2 for 5 hr, 23 nL of compounds dissolved in DMSO, positive controls or DMSO only were transferred to the assay plate by a Pintool station (Kalypsys, San Diego, CA). The assay plates were incubated at 37 C and 5% CO2 for 16 hr. One uL of LiveBLAzer B/G FRET substrate (Life Technologies) was added using a Flying Reagent Dispenser (Aurora Discovery, San Diego, CA) and the plates were incubated at room temperature for 2 hr. Fluorescence intensity (405 nm excitation, 460/530 nm emission) was measured using an Envision plate reader (PerkinElmer, Shelton, CT).
On the % scale 0 is the no-effect control and ±100 the full control effect; potency means the concentration at half of the fitted maximal effect.

SMILES	Potency	activation
CN(C)c1ccc(SC#N)cc1	inconclusive: 30.9 µM [rising, partial curve, poor fit]	–
Cc1cc2c(C(C)C)c(O)c(O)c(C=O)c2c(O)c1-c1c(C)cc2c(C(C)C)c(O)c(O)c(C=O)c2c1O	inconclusive: 10.7 µM [rising, single point]	–
Oc1c(Br)cc(Br)c2cccnc12	inconclusive: 6.74 µM [rising, full curve, poor fit]	–
CCC(C)(C)c1ccc(CC(C)CN2C[C@@H](C)O[C@@H](C)C2)cc1 (stereo not given in full)	inconclusive: 2.39 µM	–
CC(C)(C)CC(C)(C)c1ccccc1O	inconclusive: 49.2 µM [cytotoxic, single point]	–
O=C1C=CC(=O)N1c1ccc(Cc2ccc(N3C(=O)C=CC3=O)cc2)cc1	inconclusive: 15.5 µM [inhibitor, full curve]	–
C=CC(=O)OCC(O)COc1ccccc1 (stereo not given)	–	inconclusive: -32.8%
O=C1c2c(O)ccc(O)c2C(=O)c2c(NCCNCCO)ccc(NCCNCCO)c21	inconclusive: 2.39 µM [inhibitor, partial curve]	–
CCC(C)Nc1ccc(NC(C)CC)cc1 (stereo not given)	inconclusive: 3.97 µM [rising, full curve, poor fit]	–
Oc1cc2ccccc2c2ccccc12	inconclusive: 6.92 µM [rising, full curve]	–
CCCCc1oc2ccccc2c1C(=O)c1cc(I)c(OCCN(CC)CC)c(I)c1	–	inconclusive: -30.8% [at 35.3 µM]
CCCCCCCC/C=C\CCCCCCCC(=O)N(CCO)CCO	inconclusive: 17.3 µM [inhibitor, partial curve, poor fit]	–
Cc1cc(C(C)(C)C)c(O)c(C(C)(C)C)c1	inconclusive: 13.8 µM [activator, partial curve] and inconclusive: 38.9 µM [activator, partial curve] and inconclusive: 21.3 µM [activator, partial curve, poor fit]	–
CCCCOCCOCCOCc1cc2c(cc1CCC)OCO2	inconclusive: 27.9 µM [fluorescent, partial curve, poor fit]	–
O=C(Nc1cccc(C(F)(F)F)c1)c1cc(Br)cc(Br)c1O	inconclusive: 7.76 µM [rising, full curve]	–
CCN(CC)CCOc1ccc(/C(=C(\Cl)c2ccccc2)c2ccccc2)cc1	inconclusive: 28.1 µM [cytotoxic, partial curve] and inconclusive: 26.8 µM [cytotoxic, single point]	–
CC1=C(C(=O)OC(C)C)C(c2cccc([N+](=O)[O-])c2)C(C(=O)OC2CN(C(c3ccccc3)c3ccccc3)C2)=C(N)N1 (stereo not given)	inconclusive: 19 µM [cytotoxic, partial curve]	–
CCOc1nc2cccc(C(=O)OC(C)OC(=O)OC3CCCCC3)c2n1Cc1ccc(-c2ccccc2-c2nn[nH]n2)cc1 (stereo not given)	inconclusive: 48.9 µM [cytotoxic, partial curve, poor fit]	–
CS(=O)(=O)CCNCc1ccc(-c2ccc3ncnc(Nc4ccc(OCc5cccc(F)c5)c(Cl)c4)c3c2)o1	inconclusive: 21.3 µM [rising, partial curve]	–

SMILES	Potency	activation
CCCCC(CC)COC(=O)c1ccc(O)cc1 (stereo not given)	inconclusive: 61.4 µM [cytotoxic] and inconclusive: 49 µM [cytotoxic, partial curve]	–
COC(=O)C1=C(C)NC(C)=C(C(=O)OC)C1c1ccccc1[N+](=O)[O-]	inconclusive: 61.7 µM [single point]	–
N=C1N=C(N)c2cc3ccccc3cc21	inconclusive: 61.6 µM [fluorescent]	–
COc1ccc(CCN2CCC(Nc3nc4ccccc4n3Cc3ccc(F)cc3)CC2)cc1	inconclusive: 35.4 µM [cytotoxic, partial curve, poor fit] and inconclusive: 12 µM [fluorescent, single point]	–
O=C1NCN(c2ccccc2)C12CCN(CCCC(c1ccc(F)cc1)c1ccc(F)cc1)CC2	inconclusive: 26.8 µM [cytotoxic, single point]	–
N#CSCSc1nc2ccccc2s1	inconclusive: 21.9 µM	–
[O-][n+]1ccccc1SSc1cccc[n+]1[O-]	inconclusive: 0.0737 µM [inhibitor, full curve, poor fit]	–
COc1cc(/C=C/C(=O)CC(=O)/C=C/c2ccc(O)c(OC)c2)ccc1O	inconclusive: 19.6 µM [fluorescent]	–
Nc1cc([N+](=O)[O-])ccc1O	active: 9.72 µM	–
CC1=NN(c2ccccc2)C(=O)C1	inactive	–
Cc1ccc(-n2[nH]c(C)c(N=Nc3cccc(-c4cccc(C(=O)O)c4)c3O)c2=O)cc1C	–	inactive: -14.4% [at 35.3 µM]
C/C=C/C=N/NC(=O)c1ccncc1	inconclusive: 8.49 µM [rising, full curve, poor fit]	–
CCCCOCCOCCOCCO	inactive	–
O=C(c1ccc(O)cc1)c1ccc(O)cc1O	inconclusive: 43.6 µM [rising, partial curve, poor fit]	inconclusive: -22.5%
CSc1ccc2c(c1)C(N1CCN(C)CC1)Cc1ccccc1S2 (stereo not given)	inconclusive: 23.9 µM [inhibitor, partial curve]	–
Cc1cc(Br)ccc1NC(=O)CCl	inconclusive: 8.71 µM [rising, partial curve]	–
CCCC(=O)c1cc(O)c(O)cc1O	inconclusive: 38.9 µM [fluorescent]	–
CCc1cccc(C)c1N	inconclusive: 21.2 µM [activator]	–
CC(C)(C)c1ccc(C(O)CCCN2CCC(C(O)(c3ccccc3)c3ccccc3)CC2)cc1 (stereo not given)	inconclusive: 3.38 µM [partial curve, poor fit]	–

Look-ups from the entries so far:
Value of `Cc1cc(Br)ccc1NC(=O)CCl` under Potency: inconclusive: 8.71 µM [rising, partial curve]
Value of `CCN(CC)CCOc1ccc(/C(=C(\Cl)c2ccccc2)c2ccccc2)cc1` under Potency: inconclusive: 28.1 µM [cytotoxic, partial curve] and inconclusive: 26.8 µM [cytotoxic, single point]
Value of `Nc1cc([N+](=O)[O-])ccc1O` under Potency: active: 9.72 µM

same assay, conditions: HEK293T RXRa-UAS-bla, beta-lactamase ratio, 16 h; at 35.3 µM (top of the series)

SMILES	activation
CCCCc1oc2ccccc2c1C(=O)c1cc(I)c(OCCN(CC)CC)c(I)c1	inactive: -16.9%
